PubChem BioAssay AID504804 | Drosophila RNAi Screening Center, 2011

- Assay: 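Knock-downs shielding fly cells from apoptosis caused by DNA damage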 (primary screen)
- System: Drosophila Kc cells
- Knock-down reagent: long dsRNA against Drosophila genes, 0.5 µg dsRNA per well
- Time to read-out: 96 h (48 h knock-down, then 48 h drug)
- Challenge: doxorubicin 5 µg/ml for 48 h, added 48 h after dsRNA
- Detection: 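Luminescent ATP counts per replicate, not normalised, reflecting viable cells after 48 h dsRNA knock-down followed by 48 h of 5 µg/ml doxorubicin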
- Scale: raw ATP luminescence: higher = more viable cells, protection from doxorubicin
- Active means: 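z-score of 2 or more over plate mean in both duplicates, retained only when retests and separate dsRNAs confirm the protection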
The deposit covers about 19,000 reagents; shown is an unselected part of those with a known target gene and a result. Of all reagents, 47 (0.25%) got an active call. 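Signals are raw, not normalised; exact z-scores behind calls not deposited; actives needed confirmation, so some wells reaching 2 SD are inactive.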 A number with no mark means an inactive call. Reagents against one gene are numbered here. Names joined by + are all predicted targets of the reagent.

no.	predicted target	dsRNA no.	raw ATP luminescence, replicate 1	raw ATP luminescence, replicate 2
1	CG32040	1	1.55e5	1.87e5
2	sro (shroud)	1	63270	38190
3	CG17002	1	71330	73703
4	Acsf2 (Acyl-CoA synthetase family member 2)	1	28827	31517
5	kuk (kugelkern)	1	41650	42890
6	ss (spineless)	1	59920	61240
7	vrs (versager)	1	47497	54233
8	IM33 (Immune induced molecule 33)	1	26023	32867
9	T48 (Transcript 48)	1	66530	47520
10	CG9953	1	66023	83790
11	CG14892	1	74980	48570
12	CG11638	1	43200	41830
13	CG11638	2	43130	53810
14	Hmt-1 (Heavy metal tolerance factor 1)	1	51313	44887
15	CG31550	1	53247	64737
16	CG31550	2	55573	28027
17	ntc (nutcracker)	1	44397	34710
18	CG31272	1	57113	43587
19	pncr004:X (retired record)	1	1.72e5	1.85e5
20	rumi	1	46957	52440
21	HemK2 + Snapin	1	98550	64050
22	CG13117	1	36710	68347
23	Fib (Fibrillarin)	1	38017	55717
24	CG10912	1	57827	51453
25	CG11018	1	45417	59923
26	ecd (ecdysoneless)	1	57453	49600
27	CG15638	1	69640	62330
28	CG5103	1	51287	43653
29	CG6418	1	46053	71143
30	Dhpr (Dihydropteridine reductase)	1	59367	74717

Individual results from the list:
For “raw ATP luminescence, replicate 2”, CG31550 #1 has 64737
Under “raw ATP luminescence, replicate 1”, CG15638 has 69640
For “raw ATP luminescence, replicate 1”, ecd (ecdysoneless) reads 57453

More results follow:
no.	predicted target	dsRNA no.	raw ATP luminescence, replicate 1	raw ATP luminescence, replicate 2
31	CG34263	1	1.59e5	1.73e5
32	Synd (Syndapin)	1	58870	65460
33	mRpL21 (mitochondrial ribosomal protein L21)	1	61197	63073
34	CG3713	1	58100	57910
35	prage	1	31590	31870
36	prage	2	60030	41770
37	prage	3	52770	43870
38	CG33490	1	39873	39207
39	Atg18a (Autophagy-related 18a)	1	37463	44917
40	CG42541	1	29830	32860
41	CG42541	2	10030	11970
42	CG42541	3	29020	48170
43	eIF3e (eukaryotic translation initiation factor 3 subunit e)	1	46247	44000
44	stretch (retired record)	1	25353	30450
45	stretch (retired record)	2	46350	45290
46	stretch (retired record)	3	50283	46353
47	stretch (retired record)	4	46153	46193
48	stretch (retired record)	5	44147	45580
49	CG4553	1	40370	44490
50	CG31915	1	23683	26893
51	Rab10	1	2.71e5	2.76e5
52	CG31088	1	2.42e5	1.93e5
53	Gclc (Glutamate-cysteine ligase catalytic subunit)	1	32770	39410
54	inc (insomniac)	1	40000	43740
55	beat-VI (beaten path VI)	1	76200	37770
56	beat-VI (beaten path VI)	2	72170	51910
57	CG18265	1	65640	55307
